{
  "source": "the supplement of paper PMC4807443",
  "note": "Counter-ions that a name gives are not always drawn. The list shows a part of the results. The numbers are fractions of the control, whatever unit the source prints. Most values lie at the level of the controls, where differences are scatter.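 MIN6 is a mouse insulinoma beta-cell line that stably carries a lentiviral reporter in which the Pdx1 and Ins1 promoters each drive a nucleus-targeted fluorescent protein; cells were counted by automated imaging with a Hoechst nuclear stain. In the screen, a drug was a possible hit when its Ins1 promoter readout lay beyond two median absolute deviations from the DMSO controls while Pdx1 activity stayed near normal.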",
  "data": [
    {"test_system": "MIN6", "assay": "% Pdx1+ Ins1+ (double-positive, mature) cells relative to DMSO control (fold of DMSO control); higher = more mature Ins1 promoter-active cells", "details": "8.5 µM; 48 h; glucose 5 mM", "values": [
      {"smiles": "O=C(O)/C=C/c1ccc(O)c(O)c1", "note": "[Caffeic acid]", "% Pdx1+ Ins1+": 0.9},
      {"smiles": "N=C(N)NC(=O)Cc1c(Cl)cccc1Cl", "note": "[Guanfacine hydrochloride]", "% Pdx1+ Ins1+": 0.639},
      {"smiles": "CN1C(=O)CC(c2ccccc2)C1=O", "note": "(stereo not given) [Phensuximide]", "% Pdx1+ Ins1+": 0.899},
      {"smiles": "C[n+]1cc2c3c(ccc2c2ccc4cc5c(cc4c21)OCO5)OCO3", "note": "[Sanguinarine]", "% Pdx1+ Ins1+": 0.213},
      {"smiles": "Clc1ccc(CSC(Cn2ccnc2)c2ccc(Cl)cc2Cl)cc1", "note": "(stereo not given) [Sulconazole nitrate]", "% Pdx1+ Ins1+": 1.08},
      {"smiles": "CCCN(CCC)S(=O)(=O)c1ccc(C(=O)O)cc1", "note": "[Probenecid]", "% Pdx1+ Ins1+": 0.902},
      {"smiles": "C[C@]12CC[C@@H]3c4ccc(O)cc4CC[C@H]3[C@@H]1CC[C@@H]2O", "note": "[Estradiol-17 beta]", "% Pdx1+ Ins1+": 0.959},
      {"smiles": "CN(C)CCOC(c1ccccc1)c1ccccc1", "note": "[Diphenhydramine hydrochloride]", "% Pdx1+ Ins1+": 1.09},
      {"smiles": "NC(Cc1cc(I)c(Oc2cc(I)c(O)c(I)c2)c(I)c1)C(=O)O", "note": "(stereo not given) [Thyroxine (L)]", "% Pdx1+ Ins1+": 0.881},
      {"smiles": "CN(C)CC/C=C1/c2ccccc2Sc2ccc(Cl)cc21", "note": "[Chlorprothixene hydrochloride]", "% Pdx1+ Ins1+": 0.829},
      {"smiles": "CC(=O)[C@H]1CC[C@H]2[C@@H]3CCC4=CC(=O)CC[C@]4(C)[C@H]3CC[C@]12C", "note": "[Progesterone]", "% Pdx1+ Ins1+": 0.92},
      {"smiles": "C[C@]12CCC(=O)C=C1CC[C@@H]1[C@@H]2[C@@H](O)C[C@@]2(C)[C@H]1CC[C@]2(O)C(=O)CO", "note": "[Hydrocortisone base]", "% Pdx1+ Ins1+": 0.964},
      {"smiles": "CCCCCCC[N+](CC)(CC)CCCCc1ccc(Cl)cc1", "note": "[Clofilium tosylate]", "% Pdx1+ Ins1+": 0.421},
      {"smiles": "CNCCCC1c2ccccc2C=Cc2ccccc21", "note": "[Protriptyline hydrochloride]", "% Pdx1+ Ins1+": 0.763},
      {"smiles": "C[N+]1(CCCCC[N+]2(C)CCCC2)CCCC1", "note": "[Pentolinium bitartrate]", "% Pdx1+ Ins1+": 1.07},
      {"smiles": "COc1ccc(CCN(C)CCCC(C#N)(c2ccc(OC)c(OC)c2)C(C)C)cc1OC", "note": "(stereo not given) [Verapamyl hydrochloride]", "% Pdx1+ Ins1+": 1.08},
      {"smiles": "CCCc1cc(=O)[nH]c(=S)[nH]1", "note": "[Propylthiouracil]", "% Pdx1+ Ins1+": 0.983},
      {"smiles": "Fc1ccc(C(c2ccc(F)cc2)N2CCN(C/C=C/c3ccccc3)CC2)cc1", "note": "[Flunarizine dihydrochloride]", "% Pdx1+ Ins1+": 0.911},
      {"smiles": "N=C(N)c1ccc(OCCCCCOc2ccc(C(=N)N)cc2)cc1", "note": "[Pentamidine isethionate]", "% Pdx1+ Ins1+": 0.756},
      {"smiles": "CC(=O)Nc1cc2ccccc2oc1=O", "note": "[3-Acetamidocoumarin]", "% Pdx1+ Ins1+": 0.853},
      {"smiles": "COc1cccc2c1C(=O)c1c(O)c3c(c(O)c1C2=O)C[C@@](O)(C(=O)CO)C[C@@H]3O[C@H]1C[C@H](N)[C@H](O)[C@H](C)O1", "note": "[Doxorubicin hydrochloride]", "% Pdx1+ Ins1+": 0.996},
      {"smiles": "CC1(C)S[C@@H]2[C@H](NC(=O)[C@H](N)c3ccc(O)cc3)C(=O)N2[C@H]1C(=O)O", "note": "[Amoxicillin]", "% Pdx1+ Ins1+": 1.03},
      {"smiles": "CN[C@@H]1[C@H](O[C@H]2[C@H](O[C@H]3[C@H](O)[C@@H](O)[C@H](N=C(N)N)[C@@H](O)[C@@H]3N=C(N)N)O[C@@H](C)[C@]2(O)C=O)O[C@@H](CO)[C@H](O)[C@H]1O", "note": "[Streptomycin sulfate]", "% Pdx1+ Ins1+": 0.979},
      {"smiles": "COC(=O)Nc1nc2cc(C(=O)c3ccccc3)ccc2[nH]1", "note": "[Mebendazole]", "% Pdx1+ Ins1+": 1.16},
      {"smiles": "CC1(C)S[C@@H]2[C@H](NC(=O)[C@H](NC(=O)N3CCNC3=O)c3ccccc3)C(=O)N2[C@H]1C(=O)O", "note": "[Azlocillin sodium salt]", "% Pdx1+ Ins1+": 1.12},
      {"smiles": "Clc1cnccn1", "note": "[2-Chloropyrazine]", "% Pdx1+ Ins1+": 0.927},
      {"smiles": "Cc1cc2c(cc1S(N)(=O)=O)S(=O)(=O)CCC2", "note": "[Meticrane]", "% Pdx1+ Ins1+": 1.07},
      {"smiles": "CN(C)/N=N/c1[nH]cnc1C(N)=O", "note": "[Dacarbazine]", "% Pdx1+ Ins1+": 0.947},
      {"smiles": "CC[N+](C)(C)Cc1ccccc1Br", "note": "[Bretylium tosylate]", "% Pdx1+ Ins1+": 0.864},
      {"smiles": "C[N+](C)(C)CCCCCC[N+](C)(C)C", "note": "[Hexamethonium dibromide dihydrate]", "% Pdx1+ Ins1+": 1.17},
      {"smiles": "CN1C(C)(C)CCCC1(C)C", "note": "[Pempidine tartrate]", "% Pdx1+ Ins1+": 0.869},
      {"smiles": "Cc1onc(-c2c(Cl)cccc2Cl)c1C(=O)N[C@@H]1C(=O)N2[C@@H]1SC(C)(C)[C@@H]2C(=O)O", "note": "[Dicloxacillin sodium salt]", "% Pdx1+ Ins1+": 1.07},
      {"smiles": "CC(CCc1ccccc1)NCC(O)c1ccc(O)c(C(N)=O)c1", "note": "(stereo not given) [Labetalol hydrochloride]", "% Pdx1+ Ins1+": 1.07},
      {"smiles": "O=C(O)c1cccnc1Nc1cccc(C(F)(F)F)c1", "note": "[Niflumic acid]", "% Pdx1+ Ins1+": 0.98},
      {"smiles": "Cc1oncc1C(=O)Nc1ccc(C(F)(F)F)cc1", "note": "[Leflunomide]", "% Pdx1+ Ins1+": 0.973}
    ]}
  ]
}
